Results deposited as PubChem BioAssay AID1508597 (Cure First, 2020).
Test: 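Survival screen with siRNA in ovarian cancer cells derived from patients, with or without rucaparib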 (primary screen). System: human ovarian carcinoma lines grown from tumours: OCI-P5x (papillary serous) and OCI-C5x (clear cell). Reagent: siRNA pool against human genes, 1.25 pmol siRNA per well. Duration: 72 h or 96 h, depending on the cell culture. Conditions: rucaparib 20 µM (about IC30) or vehicle, present until read-out. Rucaparib or vehicle: Vehicle. Cell line: OCI-P5x (serous). Measurement: 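Luminescent ATP-based viability assay read 72 or 96 h after transfection, depending on culture, given as normalised percent viability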. Scale: viability, normalised: higher = more viable cells remaining. Active means: 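a well counts as a hit if its normalised viability is under 80 percent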. Meaning of the calls: active = viability under 80%; inactive = viability 80% or more.
Shown is a random part of the about 2,100 reagents, in one setting of the screen. 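Calls flag viability under 80% in either arm, not effects specific to rucaparib; the reference for percent is not stated.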 A number with no mark means an inactive call. A reagent listed more than once was tested more than once; the source does not tell the runs apart. Not given: the 100% reference.

| gene | technical replicate | viability, normalised (%) |
| --- | --- | --- |
| ITPK1 | 1 | 68 (active) |
| ITPK1 | 2 | 63.3 (active) |
| ITPK1 | 3 | 69 (active) |
| AMHR2 | 1 | 85.5 |
| AMHR2 | 2 | 78.7 (active) |
| AMHR2 | 3 | 83.5 |
| CBX6 | 1 | 51.3 (active) |
| CBX6 | 2 | 58.8 (active) |
| CBX6 | 3 | 73.2 (active) |
| CDC42BPG | 1 | 92.1 |
| CDC42BPG | 2 | 70.3 (active) |
| CDC42BPG | 3 | 68.9 (active) |
| PHKA2 | 1 | 87.8 |
| PHKA2 | 2 | 97.7 |
| PHKA2 | 3 | 98.1 |
| DRD2 | 1 | 55.3 (active) |
| DRD2 | 2 | 60.1 (active) |
| DRD2 | 3 | 55.6 (active) |
| PML | 1 | 54.3 (active) |
| PML | 1 | 55.8 (active) |
| PML | 2 | 46.6 (active) |
| PML | 2 | 60.4 (active) |
| PML | 3 | 54.1 (active) |
| PML | 3 | 67.3 (active) |
| PLCH1 | 1 | 74.5 (active) |
| PLCH1 | 2 | 81.4 |
| PLCH1 | 3 | 59.9 (active) |
| IPMK | 1 | 74.9 (active) |
| IPMK | 2 | 72.8 (active) |
| IPMK | 3 | 70.2 (active) |
| MAP3K8 | 1 | 81.4 |
| MAP3K8 | 2 | 64.6 (active) |
| MAP3K8 | 3 | 71.2 (active) |
| ARL8B | 1 | 64.1 (active) |
| ARL8B | 2 | 62.6 (active) |
| ARL8B | 3 | 69.3 (active) |
| PXK | 1 | 80.1 |
| PXK | 2 | 65.7 (active) |
| PXK | 3 | 76.7 (active) |
| PDK3 | 1 | 109 |
| PDK3 | 2 | 100 |
| PDK3 | 3 | 83.7 |
| MIP | 1 | 74.5 (active) |
| MIP | 2 | 87.1 |
| MIP | 3 | 84.8 |
| IGHMBP2 | 1 | 67.7 (active) |
| IGHMBP2 | 1 | 64.4 (active) |
| IGHMBP2 | 2 | 91.3 |
| IGHMBP2 | 2 | 43 (active) |
| IGHMBP2 | 3 | 51 (active) |
| IGHMBP2 | 3 | 84.8 |
| PHF21B | 1 | 65.3 (active) |
| PHF21B | 2 | 68 (active) |
| PHF21B | 3 | 89.6 |
| L3MBTL4 | 1 | 65.7 (active) |
| L3MBTL4 | 2 | 66.4 (active) |
| L3MBTL4 | 3 | 70.9 (active) |
